These results are taken from publication PMC8092839.

No constants are given. Whether binding was seen depends on the method and setting. Some results given as binding are weak or reduced against the parent protein; the word gives no strength.

The experiment addresses porcine Bax lacking the C-terminal transmembrane domain (BaxΔC) (porcine). Put plainly: two-hybrid.

B1: porcine interferon regulatory factor 3 (IRF3) (protein, UniProt Q764M6 1-419)
chain: MGTQKPRILPWLISQLNQGQLEGVAWLDEGHTRFRIPWKHGLRQDAQQEDFGIFQAWAEASGAYTPGKDKPDLPTWKRNFRSALNRKEALRLAEDHSKDPHDPHKIYEFVTSGVGDFPEPDTSLDLSGRYSTSDTHEDSLDKLLSGMDLASDAGPQSLTLALEQPPQLSLSPSVDAPASCPNLGVRENPLKQLLANDDEWEFQVTVFYRGCQVFQQTVCSPGGLRLVGSEAEDGTLAGQPVRLPDPAASLTDRGVADYVRRVLSCLGGGLALWRAGQWLWAQRLGHCHVYWAMGEELIPDSGHKPDGEVPKDREGGVFDLGPFIEDLIAFIEGSRRSPRYTLWFCMGQSWPQDEPWVKRLVMVKVVPMCLRALVDMARDGGASSLENTVDLHISNSHPLSLTSDQYKACLRDLVEDMDF
Consider B1, for which the binding entry is “binds”.
